# This is one part of the list. The main result of the screen is listed elsewhere. These columns were measured beside it and carry no call. Most of these compounds were active or inconclusive in the main read-out, so they are no random draw. Words in brackets tell the shape of the fitted curve; partial curves, single points and poor fits give uncertain potencies.
# Experiment: qHTS Assay for Modulators of Lamin A Splicing
# Details: HeLa LMNA splicing GFP/RFP minigene ratio, 48 h
# Method in brief: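 S3 HeLa stable clones carrying a lamin A-EGFP splicing minigene plus DsRed2 were seeded at 600 cells/well in Opti-MEM with 2% FBS, pin-dosed and incubated 48 h at 37°C. Acumen cytometry (488 nm) gave the GFP/RFP total-intensity ratio.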
# [1] = measured here: RFP viability control channel
# [2] = measured here: GFP splicing reporter channel
SMILES,AC50 [1],AC50 [2]
CCCCn1c(O)c(N=Nc2ccccn2)c2ccccc21,"11.2 µM [rising, partial curve, poor fit]",–
CC(C)NC(=O)c1cc2cc([N+](=O)[O-])ccc2s1,"14.1 µM [rising, partial curve]","12.6 µM [rising, partial curve]"
COc1ccc(C2CC3(CC(C)(C)NC(=S)N3)Oc3cc(O)cc(C)c32)cc1 (stereo unspecified),"20 µM [rising, partial curve, poor fit]",–
CCCS(=O)(=O)N1CCC(C(=O)c2cccc(C(F)(F)F)c2)CC1,"35.5 µM [rising, single point]",–
CCC(=O)Nc1ccccc1C(=O)OCC(=O)c1ccc2ccccc2c1,"35.5 µM [rising, single point]",–
O=C(CN1CCN(c2ccc(F)cc2)CC1)Nc1cccc(C(F)(F)F)c1,"22.4 µM [rising, single point]","14.1 µM [rising, single point]"
COc1ccc(N(C)C(=S)Oc2ccc(C(=O)Nc3ccccc3)cc2)cc1,"31.6 µM [rising, single point]",–
CN(C)S(=O)(=O)c1cccc(N=C2NN=C(c3ccccc3)CS2)c1,"10 µM [rising, partial curve]",–
COc1ccc(-c2csc(CCn3nc(C)cc3C)n2)cc1,"35.5 µM [rising, single point]",–
NS(=O)(=O)c1ccc(CCNC(=O)C(=O)NCC2OCCN2C(=O)c2ccc3c(c2)OCO3)cc1 (stereo unspecified),–,"0.0631 µM [rising, full curve, poor fit]"
Cc1ccc(NC(=O)CN2CCCN(S(=O)(=O)c3ccc(Br)s3)CC2)cc1,"22.4 µM [rising, single point]","12.6 µM [rising, single point]"
Cc1cc(C)cc(NC(=O)Nc2ccccc2OCc2cc(=O)n3ccccc3n2)c1,"35.5 µM [falling, single point]","28.2 µM [falling, single point]"
COCCN1C(=O)/C(=C/c2cc3c(cc2Br)OCO3)NC1=S,"28.2 µM [falling, partial curve]",–
Cc1nc(CS(=O)(=O)c2ccc(Cl)cc2)cc(Sc2ccc(Cl)cc2)n1,"14.1 µM [rising, partial curve, poor fit]",–
CCC1C(=O)NCCN1Cc1nc(-c2ccc(C)s2)oc1C (stereo unspecified),"0.00316 µM [falling, full curve, poor fit]",–
CCOc1ccccc1NC(=O)c1c(NCc2cccs2)sc2c1CCCCC2,–,"20 µM [falling, single point]"
COC(=O)c1ccc(COc2cccc(C)c2C)cc1,"0.01 µM [rising, full curve, poor fit]","0.01 µM [rising, full curve, poor fit]"
CCN(CC1COc2ccccc2O1)C(=S)NC1CC2CCC1C2 (stereo unspecified),"8.91 µM [rising, partial curve]",–

# No new results follow: 3 of the compounds above.
SMILES,AC50 [1],AC50 [2]
CCCS(=O)(=O)N1CCC(C(=O)c2cccc(C(F)(F)F)c2)CC1,"35.5 µM [rising, single point]",–
CCC(=O)Nc1ccccc1C(=O)OCC(=O)c1ccc2ccccc2c1,"35.5 µM [rising, single point]",–
O=C(CN1CCN(c2ccc(F)cc2)CC1)Nc1cccc(C(F)(F)F)c1,"22.4 µM [rising, single point]","14.1 µM [rising, single point]"

# Carrying on:

SMILES,AC50 [1],AC50 [2]
COc1ccc(-c2csc(Nc3ccc(C)cn3)n2)cc1OC,–,"12.6 µM [falling, partial curve, poor fit]"
COc1cccc(CNc2ccc(S(=O)(=O)Nc3nccs3)cc2)c1O,"17.8 µM [rising, single point]","12.6 µM [rising, single point]"
O=C(Nc1ccc2c(c1)C(=O)OC2)Nc1cccc2ccccc12,"2 µM [falling, full curve, poor fit]","4.47 µM [falling, partial curve, poor fit]"
Clc1ccc(CSc2cc3c(nn2)-c2ccccc2CC3)cc1,"17.8 µM [rising, single point]","14.1 µM [rising, single point]"
CCc1ccc(-n2c(SCc3ccccc3C)nc3[nH]ncc3c2=O)cc1,"35.5 µM [falling, single point]","25.1 µM [falling, single point]"
O=C(CN1CCC(C(=O)c2ccc(F)cc2)CC1)Nc1ccccc1,"25.1 µM [rising, partial curve]","28.2 µM [rising, single point]"
Cc1ccccc1[C@@H]1C(C#N)=C(N)S[C@H]1C(=O)c1ccccc1,"35.5 µM [rising, single point]",–
Cc1ccccc1N1CCN(C(=S)c2ccccc2)CC1,–,"35.5 µM [rising, single point]"
CCN(CC)C(=O)c1ccc(S(=O)(=O)NCc2cccnc2)cc1,"14.1 µM [rising, partial curve]","17.8 µM [rising, partial curve, poor fit]"
CCc1ccc(-c2nn(CC(=O)NCc3ccccc3)c3c2cnc2ccc(C)cc23)cc1,"0.0112 µM [falling, full curve, poor fit]","0.0158 µM [falling, full curve]"
COc1ccc2[nH]c(C)c(CCNC(=S)Nc3ccccc3C)c2c1,"25.1 µM [rising, single point]","14.1 µM [rising, single point]"
O=C(Cn1c(=O)n(Cc2ccco2)c(=O)c2ccccc21)Nc1cccc(Cl)c1,"14.1 µM [rising, partial curve, poor fit]",–
O=C(CCS(=O)(=O)c1ccc(Cl)cc1)N1CCN(c2ccccc2F)CC1,"14.1 µM [rising, partial curve]","12.6 µM [rising, partial curve, poor fit]"
O=c1c(-c2ccc3c(c2)OCCO3)c(C(F)(F)F)oc2cc(O)cc(O)c12,"35.5 µM [rising, single point]",–
CC(C)Cn1c(N)c(C(=O)CCl)c(=O)n(C)c1=O,"15.8 µM [rising, partial curve]","11.2 µM [rising, partial curve]"
C=CCN=c1scc(-c2ccccc2)n1/N=C/c1ccccn1,"2 µM [rising, full curve]",–
CCCCNC(=O)/C(C#N)=C/c1ccc(-c2ccc(S(=O)(=O)N3CCOCC3)cc2)o1,"11.2 µM [rising, single point]","7.94 µM [rising, partial curve]"
